A short description of this assay: qHTS Assay for Lipid Storage Modulators in Drosophila S3 Cells.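 For cell number change: cells counted by Cell Tracker Red CMTPX staining in the red channel.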 Particulars: BODIPY lipid droplet fluorescence, 18-24 h; for cell number change: measured here: cell count max response, cells fed with added oleic acid. Summed up:
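Drosophila S3 cells got compounds at several concentrations plus oleic acid (400 uM solution). Laser-scanning cytometry with 488 nm excitation read lipid droplets at 500-530 nm and cells at 575-640 nm. Percent activity was relative to 20 uM Triacsin C.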
(In general: In qHTS, concentration-response curves come from the screen itself.)

[1] abbreviates: measured here: lipid fluorescence (Fed channel) AC50, cells fed with added oleic acid.
Where [2] appears, read: measured here: cell number channel AC50, cells fed with added oleic acid.

This is one part of the list. These are further read-outs of the screen, such as a control signal, another cell line or another target. No call is given for them. Compounds called inactive in the main read-out are mostly missing here. Words in brackets tell the shape of the fitted curve; partial curves, single points and poor fits give uncertain potencies.

This note sets out measurements from PubChem BioAssay AID2685 (National Center for Advancing Translational Sciences (NCATS), 2010).

A word on the AC50: it is the concentration giving half of the maximal activity seen. High values mean weaker potency, low ones greater potency.

`O=C(Cc1ccc(Cl)cc1)Nc1cccc(C(=O)Nc2ccccc2C(=O)O)c1`: the cell number change came to 4.72%. For the same compound, the AC50 under setting [1] is 20.6 µM [falling, partial curve].
Take `O=C(CCCOc1ccccc1)NCCc1nc2ccccc2[nH]1`: the cell number change was -21.9%. In addition, under setting [1], the AC50 was 0.0116 µM [falling, full curve].
For the compound `Cc1ccc(OCC(=O)NC2CCCC(C)C2C)c([N+](=O)[O-])n1` (stereo unspecified), the cell number change is -8.84%. Further, the AC50 under setting [1] is 0.291 µM [falling, partial curve, poor fit].
`COc1ccc(CCNc2nc(C)cc(C)n2)cc1OC`: the cell number change stood at 30.4%.
On to `C/C(CC(=O)Nc1ccc(N(C)C)cc1)=N\NC(=O)Cc1csc(N)n1`, for which the cell number change stood at 7.08%. In addition, the AC50 under setting [1] is 9.2 µM [rising, partial curve].
With `COc1cc(/C=N/NC(=O)c2ccc(F)cc2)ccc1OC(=O)c1ccco1`, the cell number change was -1.02%. Under setting [1], the concentration at half-maximal activity (AC50) is 2.91 µM [falling, single point].
Regarding `NC(=O)c1ccc(NC(=O)Nc2ccc3c(c2)OCO3)cc1`, the cell number change worked out at 4.99%. Further, under setting [1], the AC50 is 4.61 µM [rising, full curve, poor fit].
Consider `CCOc1ccccc1C(=O)NC(C(=O)N(C)Cc1ccc2c(c1)OCO2)C(C)C` (stereo unspecified), for which the cell number change worked out at 16.2%. Besides, the AC50 under setting [1] was 9.2 µM [rising, partial curve, poor fit].
Regarding `O=C(CN(C(=O)c1csnn1)c1ccc(F)c(Cl)c1)NC1CCCCC1`, the cell number change is -3.85%.
As for `Cc1c(NC(=O)c2ccc3c(c2)C(=O)N(CC2CCCO2)C3=O)cccc1C(=O)O` (stereo unspecified), the cell number change is -111%. Further, the AC50 under setting [2] is 29.1 µM [falling, single point].
With `CCOC(=O)C1=C(COC(=O)/C=C/c2ccc([N+](=O)[O-])cc2)NC(=O)NC1C` (stereo unspecified), the cell number change came out at 36.6%. Further, the AC50 under setting [2] was 29.1 µM [rising, single point]. Moreover, the AC50 under setting [1] is 32.6 µM [rising, single point].
`O=C(/C=C/c1cccs1)Nc1sc2c(c1C(=O)O)CCCC2`: the cell number change stood at 22.6%.
With `O=C(OCC(=O)N1CCCC1=O)C1CCN(S(=O)(=O)c2ccc(Cl)c(C(F)(F)F)c2)CC1`, the cell number change is -46.4%. Further, under setting [2], the AC50 was 13 µM [falling, partial curve, poor fit]. Also, the half-maximal activity concentration (AC50) under setting [1] was 11.6 µM [falling, partial curve].
As for `O=C(CCCOc1cccc(Br)c1)NCCOc1ccccc1`, the cell number change was found to be 8.33%. Besides, the AC50 under setting [1] was 0.00517 µM [rising, full curve, poor fit].
With `O=C(N/N=C(\Cc1ncc[nH]1)c1ccccc1)c1cccnc1`, the AC50 was 0.58 µM [rising, single point] under setting [2] and 25.9 µM [rising, single point] under setting [1].
With `Cc1cc(OCC(=O)N2CCC(C(=O)O)CC2)c2c(C)cc(=O)oc2c1`, the cell number change turned out to be 13%. The AC50 under setting [1] was 0.058 µM [rising, full curve, poor fit].
